The target of this test is Human epidermal growth factor receptor 2 (Her2) (human (endogenous in BBM1)) (UniProt P04626). In words: co-IP; BBM1 cell lysate (750 ug protein) incubated overnight at 4 °C with Protein G agarose beads pre-conjugated with primary antibody (4 ug; Her2 or TrkB immunoprecipitation); IgG beads as control; washed five times with high salt, low salt, LiCl and TE buffers; western blot; cells also grown with lapatinib (50 uM) and/or cyclotraxin B (20 uM), which decreased the interaction. On the technique in general: Immunoblotting shows a protein as a band on a membrane.

Protein sequences, listed by entry. Tags and fused reporters are not part of them. Residues count along the entry.
UniProt Q16620, residues 32-822: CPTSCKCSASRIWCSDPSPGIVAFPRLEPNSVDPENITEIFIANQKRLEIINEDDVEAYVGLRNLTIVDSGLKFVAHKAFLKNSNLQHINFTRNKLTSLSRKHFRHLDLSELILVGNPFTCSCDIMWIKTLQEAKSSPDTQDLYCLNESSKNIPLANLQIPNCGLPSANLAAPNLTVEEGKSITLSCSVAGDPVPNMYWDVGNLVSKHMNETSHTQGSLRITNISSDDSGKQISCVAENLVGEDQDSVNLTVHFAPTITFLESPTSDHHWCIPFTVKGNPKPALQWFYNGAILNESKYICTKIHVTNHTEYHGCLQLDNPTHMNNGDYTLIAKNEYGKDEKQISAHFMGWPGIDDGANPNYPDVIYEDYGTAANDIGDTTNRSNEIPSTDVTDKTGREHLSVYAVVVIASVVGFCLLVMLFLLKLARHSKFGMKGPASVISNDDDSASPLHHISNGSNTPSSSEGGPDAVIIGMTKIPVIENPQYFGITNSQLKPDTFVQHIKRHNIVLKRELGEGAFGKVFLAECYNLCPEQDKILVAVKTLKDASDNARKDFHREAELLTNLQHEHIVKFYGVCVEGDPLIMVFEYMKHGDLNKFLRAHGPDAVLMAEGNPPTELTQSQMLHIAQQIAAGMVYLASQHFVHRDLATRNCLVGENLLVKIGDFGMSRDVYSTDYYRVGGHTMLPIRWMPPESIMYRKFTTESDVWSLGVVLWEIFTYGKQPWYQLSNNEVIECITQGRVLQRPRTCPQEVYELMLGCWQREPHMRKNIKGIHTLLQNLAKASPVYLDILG

No constants are given. Whether binding was seen depends on the method and setting. Binding seen in cells or lysates may run through a third protein. Some entries that bind do so weakly or less than the wild type.

As to “Tropomyosin-related kinase B (TrkB) (from UniProt Q16620 32-822) (receptor)”, the binding entry is listed as “binds”.

These data come from paper PMC5406906.
